According to the supplement of paper PMC10849652:
This is one part of the list.

The chains behind the UniProt entries cited, without tags or fusion partners. Where a name states a change or a piece, a line headed by the entry shows the natural chain unless it says otherwise.
UniProt Q96C90: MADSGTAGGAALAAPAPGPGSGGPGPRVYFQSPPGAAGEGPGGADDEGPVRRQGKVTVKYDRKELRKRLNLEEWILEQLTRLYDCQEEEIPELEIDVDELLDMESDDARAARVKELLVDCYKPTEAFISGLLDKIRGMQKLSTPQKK
UniProt Q5H9R7: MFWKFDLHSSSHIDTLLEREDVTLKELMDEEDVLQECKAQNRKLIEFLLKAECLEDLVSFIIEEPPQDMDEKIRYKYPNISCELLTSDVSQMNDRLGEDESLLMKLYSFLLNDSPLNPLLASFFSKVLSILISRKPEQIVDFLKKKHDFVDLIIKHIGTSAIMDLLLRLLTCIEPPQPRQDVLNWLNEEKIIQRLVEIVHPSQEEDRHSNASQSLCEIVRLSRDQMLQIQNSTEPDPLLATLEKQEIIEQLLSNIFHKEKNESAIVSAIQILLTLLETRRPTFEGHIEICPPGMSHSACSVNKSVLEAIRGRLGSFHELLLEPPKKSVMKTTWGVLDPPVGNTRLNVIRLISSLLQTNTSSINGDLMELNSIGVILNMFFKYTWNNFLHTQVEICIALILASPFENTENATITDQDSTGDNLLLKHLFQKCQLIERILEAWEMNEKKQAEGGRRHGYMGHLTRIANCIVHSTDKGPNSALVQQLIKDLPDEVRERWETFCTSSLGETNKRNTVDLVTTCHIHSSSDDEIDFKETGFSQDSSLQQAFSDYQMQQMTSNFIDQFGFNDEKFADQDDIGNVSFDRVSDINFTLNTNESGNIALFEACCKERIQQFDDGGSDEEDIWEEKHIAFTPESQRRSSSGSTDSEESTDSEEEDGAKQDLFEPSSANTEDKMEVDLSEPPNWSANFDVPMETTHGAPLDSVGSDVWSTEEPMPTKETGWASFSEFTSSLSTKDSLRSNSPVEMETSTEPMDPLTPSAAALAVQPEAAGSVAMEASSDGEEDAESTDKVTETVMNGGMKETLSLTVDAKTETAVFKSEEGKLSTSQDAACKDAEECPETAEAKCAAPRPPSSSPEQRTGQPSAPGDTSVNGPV
UniProt Q14558: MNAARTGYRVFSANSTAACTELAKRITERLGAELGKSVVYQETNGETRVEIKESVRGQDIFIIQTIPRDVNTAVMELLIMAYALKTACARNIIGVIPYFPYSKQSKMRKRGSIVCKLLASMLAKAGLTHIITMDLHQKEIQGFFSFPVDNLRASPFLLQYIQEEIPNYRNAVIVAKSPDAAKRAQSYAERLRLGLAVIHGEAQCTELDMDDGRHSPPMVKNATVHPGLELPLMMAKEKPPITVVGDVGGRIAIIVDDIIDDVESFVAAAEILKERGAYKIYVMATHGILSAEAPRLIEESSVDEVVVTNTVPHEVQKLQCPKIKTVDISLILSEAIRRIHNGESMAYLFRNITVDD
UniProt P78527, whole entry, looked up: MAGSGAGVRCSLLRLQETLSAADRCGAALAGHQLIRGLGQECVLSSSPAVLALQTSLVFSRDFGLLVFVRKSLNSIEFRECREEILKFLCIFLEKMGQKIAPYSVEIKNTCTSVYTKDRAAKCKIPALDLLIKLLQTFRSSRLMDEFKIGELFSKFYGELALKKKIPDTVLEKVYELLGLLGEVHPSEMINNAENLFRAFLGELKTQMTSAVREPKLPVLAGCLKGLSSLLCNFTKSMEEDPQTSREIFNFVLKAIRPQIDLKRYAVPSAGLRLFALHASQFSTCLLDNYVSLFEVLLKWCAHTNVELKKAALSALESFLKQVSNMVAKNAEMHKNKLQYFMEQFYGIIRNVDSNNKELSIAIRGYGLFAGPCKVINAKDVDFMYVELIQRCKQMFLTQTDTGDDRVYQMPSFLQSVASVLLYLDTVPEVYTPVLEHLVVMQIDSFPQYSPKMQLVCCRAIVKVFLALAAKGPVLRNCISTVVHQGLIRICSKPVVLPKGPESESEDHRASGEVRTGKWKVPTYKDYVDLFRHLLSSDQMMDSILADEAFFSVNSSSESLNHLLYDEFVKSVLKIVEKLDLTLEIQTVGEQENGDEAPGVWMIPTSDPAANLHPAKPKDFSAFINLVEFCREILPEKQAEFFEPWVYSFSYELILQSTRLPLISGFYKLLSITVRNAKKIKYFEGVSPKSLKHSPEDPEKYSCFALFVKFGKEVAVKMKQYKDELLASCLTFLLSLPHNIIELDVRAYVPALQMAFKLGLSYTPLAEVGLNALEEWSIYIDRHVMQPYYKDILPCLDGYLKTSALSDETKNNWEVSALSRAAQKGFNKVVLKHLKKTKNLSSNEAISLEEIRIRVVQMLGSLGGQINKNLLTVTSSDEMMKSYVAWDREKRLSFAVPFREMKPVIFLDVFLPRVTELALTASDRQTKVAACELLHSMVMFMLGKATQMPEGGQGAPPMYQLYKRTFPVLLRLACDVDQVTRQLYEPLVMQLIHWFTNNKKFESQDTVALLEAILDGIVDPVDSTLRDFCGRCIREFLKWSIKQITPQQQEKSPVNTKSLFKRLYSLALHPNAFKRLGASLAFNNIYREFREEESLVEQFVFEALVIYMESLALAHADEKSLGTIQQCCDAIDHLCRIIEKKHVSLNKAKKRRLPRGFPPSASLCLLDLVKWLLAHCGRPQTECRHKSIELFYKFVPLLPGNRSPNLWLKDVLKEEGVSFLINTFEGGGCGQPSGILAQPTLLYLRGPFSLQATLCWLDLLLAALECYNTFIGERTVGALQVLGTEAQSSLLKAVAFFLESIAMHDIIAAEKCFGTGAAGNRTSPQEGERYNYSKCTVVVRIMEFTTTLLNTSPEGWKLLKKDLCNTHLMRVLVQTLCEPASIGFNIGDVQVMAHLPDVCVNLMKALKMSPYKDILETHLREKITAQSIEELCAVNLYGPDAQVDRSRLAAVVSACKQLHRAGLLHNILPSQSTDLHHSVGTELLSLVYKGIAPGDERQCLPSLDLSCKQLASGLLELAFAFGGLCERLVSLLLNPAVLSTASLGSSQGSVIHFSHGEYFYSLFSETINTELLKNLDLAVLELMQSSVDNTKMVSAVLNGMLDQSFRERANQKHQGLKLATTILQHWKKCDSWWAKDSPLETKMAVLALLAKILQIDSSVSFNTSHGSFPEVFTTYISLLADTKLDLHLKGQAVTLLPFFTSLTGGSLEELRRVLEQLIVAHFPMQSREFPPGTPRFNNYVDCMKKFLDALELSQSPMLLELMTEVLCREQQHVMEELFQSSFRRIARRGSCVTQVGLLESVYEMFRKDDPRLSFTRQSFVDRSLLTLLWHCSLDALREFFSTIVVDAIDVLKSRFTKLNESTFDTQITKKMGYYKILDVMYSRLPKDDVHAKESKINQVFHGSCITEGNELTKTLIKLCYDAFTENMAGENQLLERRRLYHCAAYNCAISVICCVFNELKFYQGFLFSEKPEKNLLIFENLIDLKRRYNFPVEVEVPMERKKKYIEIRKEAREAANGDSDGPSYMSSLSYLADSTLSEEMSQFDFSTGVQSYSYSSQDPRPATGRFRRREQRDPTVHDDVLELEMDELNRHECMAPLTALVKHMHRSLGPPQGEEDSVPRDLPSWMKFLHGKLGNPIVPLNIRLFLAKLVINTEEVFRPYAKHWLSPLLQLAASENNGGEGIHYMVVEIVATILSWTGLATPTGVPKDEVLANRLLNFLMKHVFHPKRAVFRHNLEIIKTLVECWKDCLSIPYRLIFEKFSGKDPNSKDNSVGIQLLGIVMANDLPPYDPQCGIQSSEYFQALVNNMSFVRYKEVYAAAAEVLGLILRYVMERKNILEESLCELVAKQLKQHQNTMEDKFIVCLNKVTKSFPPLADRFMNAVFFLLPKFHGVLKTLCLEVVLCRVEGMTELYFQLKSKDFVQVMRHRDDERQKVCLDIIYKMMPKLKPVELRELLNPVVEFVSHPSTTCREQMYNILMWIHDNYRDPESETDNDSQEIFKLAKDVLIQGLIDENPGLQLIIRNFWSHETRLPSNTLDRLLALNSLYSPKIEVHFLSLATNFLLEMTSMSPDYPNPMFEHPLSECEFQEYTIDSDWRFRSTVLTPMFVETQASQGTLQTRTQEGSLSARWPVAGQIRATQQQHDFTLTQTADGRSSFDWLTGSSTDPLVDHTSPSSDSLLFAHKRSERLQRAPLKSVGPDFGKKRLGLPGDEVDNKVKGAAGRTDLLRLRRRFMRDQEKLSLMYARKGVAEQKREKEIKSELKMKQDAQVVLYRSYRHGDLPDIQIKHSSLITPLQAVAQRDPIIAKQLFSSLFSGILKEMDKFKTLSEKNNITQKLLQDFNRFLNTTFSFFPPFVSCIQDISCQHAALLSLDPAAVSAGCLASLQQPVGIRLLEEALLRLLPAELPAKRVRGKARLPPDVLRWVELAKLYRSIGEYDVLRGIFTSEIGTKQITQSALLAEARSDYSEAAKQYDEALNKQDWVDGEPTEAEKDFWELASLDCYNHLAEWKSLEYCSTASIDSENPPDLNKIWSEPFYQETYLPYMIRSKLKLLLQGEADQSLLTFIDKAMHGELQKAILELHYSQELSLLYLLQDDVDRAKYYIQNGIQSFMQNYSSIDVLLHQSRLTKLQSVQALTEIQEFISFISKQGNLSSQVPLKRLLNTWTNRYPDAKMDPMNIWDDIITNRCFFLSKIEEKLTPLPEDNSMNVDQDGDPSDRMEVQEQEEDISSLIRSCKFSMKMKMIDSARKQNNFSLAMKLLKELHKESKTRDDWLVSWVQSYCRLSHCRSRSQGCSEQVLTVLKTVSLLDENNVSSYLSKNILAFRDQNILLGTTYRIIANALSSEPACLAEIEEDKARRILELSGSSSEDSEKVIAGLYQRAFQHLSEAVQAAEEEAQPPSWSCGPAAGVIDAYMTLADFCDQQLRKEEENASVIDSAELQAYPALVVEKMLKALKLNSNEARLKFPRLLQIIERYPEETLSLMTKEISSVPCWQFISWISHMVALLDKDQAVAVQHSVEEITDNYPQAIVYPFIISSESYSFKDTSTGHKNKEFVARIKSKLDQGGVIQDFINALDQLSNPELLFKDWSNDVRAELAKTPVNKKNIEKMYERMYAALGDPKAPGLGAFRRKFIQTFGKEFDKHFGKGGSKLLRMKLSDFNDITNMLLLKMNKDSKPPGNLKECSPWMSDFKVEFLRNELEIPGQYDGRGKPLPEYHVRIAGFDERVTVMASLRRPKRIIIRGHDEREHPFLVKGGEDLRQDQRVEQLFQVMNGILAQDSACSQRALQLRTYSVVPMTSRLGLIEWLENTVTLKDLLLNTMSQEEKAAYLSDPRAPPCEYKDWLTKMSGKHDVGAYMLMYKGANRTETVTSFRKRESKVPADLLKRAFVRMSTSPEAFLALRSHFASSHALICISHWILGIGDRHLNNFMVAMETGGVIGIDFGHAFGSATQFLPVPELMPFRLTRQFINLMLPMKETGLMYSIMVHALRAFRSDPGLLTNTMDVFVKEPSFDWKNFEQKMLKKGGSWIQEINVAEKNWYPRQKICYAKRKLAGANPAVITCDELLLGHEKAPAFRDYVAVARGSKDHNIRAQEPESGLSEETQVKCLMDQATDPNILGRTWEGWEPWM
UniProt Q13131: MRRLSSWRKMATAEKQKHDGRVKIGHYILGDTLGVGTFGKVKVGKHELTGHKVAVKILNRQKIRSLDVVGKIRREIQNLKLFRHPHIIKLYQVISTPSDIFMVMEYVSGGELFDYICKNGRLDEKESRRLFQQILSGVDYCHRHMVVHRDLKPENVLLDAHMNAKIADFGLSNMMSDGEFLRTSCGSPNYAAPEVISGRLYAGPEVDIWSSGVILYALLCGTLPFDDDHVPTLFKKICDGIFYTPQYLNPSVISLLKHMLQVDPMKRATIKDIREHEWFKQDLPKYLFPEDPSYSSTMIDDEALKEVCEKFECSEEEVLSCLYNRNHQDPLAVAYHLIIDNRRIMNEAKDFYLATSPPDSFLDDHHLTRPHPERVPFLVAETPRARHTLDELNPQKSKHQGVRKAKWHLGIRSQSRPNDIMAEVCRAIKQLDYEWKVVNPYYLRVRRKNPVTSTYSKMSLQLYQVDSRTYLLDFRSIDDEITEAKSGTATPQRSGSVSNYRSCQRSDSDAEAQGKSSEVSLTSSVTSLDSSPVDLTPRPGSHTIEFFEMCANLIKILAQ
UniProt P07478, whole entry, looked up: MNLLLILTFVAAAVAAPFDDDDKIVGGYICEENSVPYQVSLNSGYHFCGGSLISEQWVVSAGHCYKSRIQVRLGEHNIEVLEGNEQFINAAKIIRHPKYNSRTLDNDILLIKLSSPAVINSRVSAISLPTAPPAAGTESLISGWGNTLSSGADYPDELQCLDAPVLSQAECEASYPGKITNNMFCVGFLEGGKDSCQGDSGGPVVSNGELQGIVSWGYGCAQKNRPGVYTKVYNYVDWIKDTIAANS
UniProt Q9UNN8: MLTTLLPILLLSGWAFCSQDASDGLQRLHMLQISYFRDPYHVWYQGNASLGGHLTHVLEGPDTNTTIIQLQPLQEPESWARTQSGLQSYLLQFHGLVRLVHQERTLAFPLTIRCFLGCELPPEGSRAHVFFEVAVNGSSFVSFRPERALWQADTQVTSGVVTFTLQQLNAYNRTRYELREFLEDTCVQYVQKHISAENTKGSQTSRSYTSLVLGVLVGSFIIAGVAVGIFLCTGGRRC

Compound: Cn1cncc1[C@@](N)(c1ccc(Cl)cc1)c1ccc2c(c1)c(-c1cccc(Cl)c1)cc(=O)n2C [tipifarnib]
Experiment: log2 fold change, soluble protein after heating vs DMSO (PISA); higher = thermal stabilisation; K562 cells, 10 uM, 30 min; active = over 0.2 and 3.5 SD of the protein, either way, in both replicates (recomputed)
Method in brief: (§1)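 Quantification of soluble protein used TMTpro 16plex LC-MS/MS, with channel sums equalised. Samples were the supernatant after 21,000xg for 90 min of pooled aliquots from K562 cells (2×10^6 cells/mL) treated with 10 μM compound for 30 min, heated for 3 min over 48°C-58°C, and extracted in PBS with 0.5% NP-40 at 4°C. Values, from duplicates, describe thermal stability against control samples on a log2 fold-change scale.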

| Target | log2 fold change |
| --- | --- |
| PPP1CA (UniProt P62136) | inactive: 0.023 |
| PPP1R14B (UniProt Q96C90) | inactive: -0.189 |
| PRKAG1 isoform 3 (UniProt P54619) | inactive: 0.007 |
| PPP6R3 isoform 5 (UniProt Q5H9R7) | inactive: 0.038 |
| PRKAR2B (UniProt P31323) | inactive: -0.103 |
| PRPSAP1 isoform 2 (UniProt Q14558) | inactive: 0.025 |
| PRKCQ (UniProt Q04759) | inactive: -0.134 |
| PPM1G (UniProt O15355) | inactive: -0.133 |
| PRKCB isoform 2 (UniProt P05771) | inactive: -0.051 |
| PRMT8 (UniProt Q9NR22) | inactive: -0.136 |
| PPP2R5C isoform 4 (UniProt Q13362) | inactive: -0.093 |
| PRKCSH (UniProt K7ELL7) | inactive: 0.016 |
| PRKAB2 (UniProt O43741) | inactive: -0.046 |
| PRPF18 (UniProt Q99633) | inactive: 0.007 |
| PRKCA (UniProt P17252) | inactive: -0.026 |
| PRKDC (UniProt P78527) | inactive: -0.044 |

| Target | log2 fold change |
| --- | --- |
| PPP2R5A (UniProt Q15172) | inactive: -0.179 |
| PPP1R14A (UniProt Q96A00) | inactive: 0 |
| PRKACA (UniProt P17612) | inactive: -0.036 |
| PRKAA1 isoform 2 (UniProt Q13131) | inactive: -0.012 |
| PRMT7 (UniProt Q9NVM4) | inactive: -0.116 |
| PPP1R35 (UniProt Q8TAP8) | inactive: -0.022 |
| PRPF4B (UniProt Q13523) | inactive: 0.117 |
| PRKAR2A (UniProt P13861) | inactive: 0.004 |
| PRSS2 (UniProt P07478) | inactive: 0.107 |
| PRKAR1B (UniProt P31321) | inactive: 0.147 |
| PROCR (UniProt Q9UNN8) | inactive: 0.004 |
| PRKCD (UniProt Q05655) | inactive: 0.008 |
| PPP1R12A (UniProt O14974) | inactive: -0.023 |
| PRKRA (UniProt O75569) | inactive: 0.05 |
| PPP6R1 (UniProt Q9UPN7) | inactive: 0.01 |

Compound: FC(F)(F)c1ccc(/C=C/c2nc(COc3ccc(CCCCn4ccnn4)cc3)co2)cc1 [mubritinib]
Experiment: as above
Method in brief: as §1

| Target | log2 fold change |
| --- | --- |
| PPP1CA (UniProt P62136) | inactive: 0.065 |
| PPP1R14B (UniProt Q96C90) | inactive: -0.016 |
| PRKAG1 isoform 3 (UniProt P54619) | inactive: -0.052 |
| PPP6R3 isoform 5 (UniProt Q5H9R7) | inactive: 0.05 |
| PRKAR2B (UniProt P31323) | inactive: 0.189 |
| PRPSAP1 isoform 2 (UniProt Q14558) | inactive: 0.071 |
| PRKCQ (UniProt Q04759) | inactive: 0.12 |
| PPM1G (UniProt O15355) | inactive: 0.105 |
| PRKCB isoform 2 (UniProt P05771) | inactive: 0.054 |
| PRMT8 (UniProt Q9NR22) | inactive: 0.035 |
| PPP2R5C isoform 4 (UniProt Q13362) | inactive: 0.095 |
| PRKCSH (UniProt K7ELL7) | inactive: 0.157 |
| PRKAB2 (UniProt O43741) | inactive: -0.02 |
| PRPF18 (UniProt Q99633) | inactive: 0.063 |
| PRKCA (UniProt P17252) | inactive: 0.054 |
| PRKDC (UniProt P78527) | inactive: 0.033 |
| PPP2R5A (UniProt Q15172) | inactive: 0.012 |
| PPP1R14A (UniProt Q96A00) | inactive: 0.033 |
| PRKACA (UniProt P17612) | inactive: 0.066 |
| PRKAA1 isoform 2 (UniProt Q13131) | inactive: -0.012 |
| PRMT7 (UniProt Q9NVM4) | inactive: 0.092 |
| PPP1R35 (UniProt Q8TAP8) | inactive: 0.065 |
| PRPF4B (UniProt Q13523) | inactive: 0.069 |
| PRKAR2A (UniProt P13861) | inactive: 0.042 |
| PRKAR1B (UniProt P31321) | inactive: -0.286 |
| PRADC1 (UniProt Q9BSG0) | inactive: 0.004 |
| PRKCD (UniProt Q05655) | inactive: 0.08 |
| PPP1R12A (UniProt O14974) | inactive: 0.07 |
| PRKRA (UniProt O75569) | inactive: -0.239 |
| PPP6R1 (UniProt Q9UPN7) | inactive: 0.043 |
